Results are given in words; binding and its absence hold for the method and conditions named. Binding seen in cells or lysates may run through a third protein. Some results given as binding are weak or reduced against the parent protein; the word gives no strength.
Tests used:
[1] = molecular target: HA-AvrRps4 N-terminus (Pseudomonas syringae pv. pisi) (UniProt Q52432); assay: co-IP; Myc-EDS1 and HA-AvrRps4 fragments co-expressed in N. benthamiana; microsomal fraction (100,000 x g pellet) resuspended in buffer H (50 mM HEPES pH 7.5, 250 mM sucrose, 15 mM EDTA, 5% glycerol, 3 mM DTT) with 1% NP-40; HA-conjugated beads, 4°C, 1 hour; washed with buffer H with 0.2% NP-40
[2] = molecular target: HA-AvrRps4 C-terminus (Pseudomonas syringae pv. pisi) (UniProt Q52432); assay: as above
[3] = molecular target: GFP-AvrRps4^N (Pseudomonas syringae pv. pisi) (UniProt Q52432); assay: co-IP; microsomal Myc-EDS1 with GFP-tagged AvrRps4 fragments or GFP with an ER retention signal, expressed in N. benthamiana; which partner was precipitated is not told
[4] = molecular target: AvrRps4^C-GFP (Pseudomonas syringae pv. pisi) (UniProt Q52432); assay: as above
His-T7-EDS1 = His-T7-EDS1 (UniProt Q9XF23); assay: pull-down; nickel purification: His-T7-EDS1 and a GST-AvrRps4 construct co-expressed in E. coli BL21(DE3); lysate in 50 mM sodium phosphate, 300 mM NaCl, 20 mM imidazole, pH 7.4 passed over nickel beads, washed with 20-200 mM imidazole, eluted with 250 mM imidazole at 4°C; immunoblot
[5] = molecular target: GST-AvrRps4^C (Pseudomonas syringae pv. pisi) (UniProt Q52432); assay: pull-down; GST purification: lysate with the GST protein bound to the GST column in TBS, 1 hr at 4°C, washed with 100x column volume; His-T7-EDS1 lysate (2x dilution) added, 1 hr at 4°C; washed; eluted with 10 mM glutathione; immunoblot; only the target purified
[6] = molecular target: GST-AvrRps4^N (Pseudomonas syringae pv. pisi) (UniProt Q52432); assay: as above

Protein sequences, listed by entry. Tags and fused reporters are not part of them. Residues count along the entry.
GST-AvrRps4^N (Q52432, residues 1-133): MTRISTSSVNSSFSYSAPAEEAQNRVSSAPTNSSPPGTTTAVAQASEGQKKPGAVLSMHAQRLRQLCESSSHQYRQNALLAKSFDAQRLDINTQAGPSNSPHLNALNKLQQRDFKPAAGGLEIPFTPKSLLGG
GST-AvrRps4^C (Q52432, residues 134-220): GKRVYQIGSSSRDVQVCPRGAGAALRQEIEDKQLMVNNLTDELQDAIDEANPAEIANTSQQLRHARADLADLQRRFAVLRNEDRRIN
UniProt Q9XF23: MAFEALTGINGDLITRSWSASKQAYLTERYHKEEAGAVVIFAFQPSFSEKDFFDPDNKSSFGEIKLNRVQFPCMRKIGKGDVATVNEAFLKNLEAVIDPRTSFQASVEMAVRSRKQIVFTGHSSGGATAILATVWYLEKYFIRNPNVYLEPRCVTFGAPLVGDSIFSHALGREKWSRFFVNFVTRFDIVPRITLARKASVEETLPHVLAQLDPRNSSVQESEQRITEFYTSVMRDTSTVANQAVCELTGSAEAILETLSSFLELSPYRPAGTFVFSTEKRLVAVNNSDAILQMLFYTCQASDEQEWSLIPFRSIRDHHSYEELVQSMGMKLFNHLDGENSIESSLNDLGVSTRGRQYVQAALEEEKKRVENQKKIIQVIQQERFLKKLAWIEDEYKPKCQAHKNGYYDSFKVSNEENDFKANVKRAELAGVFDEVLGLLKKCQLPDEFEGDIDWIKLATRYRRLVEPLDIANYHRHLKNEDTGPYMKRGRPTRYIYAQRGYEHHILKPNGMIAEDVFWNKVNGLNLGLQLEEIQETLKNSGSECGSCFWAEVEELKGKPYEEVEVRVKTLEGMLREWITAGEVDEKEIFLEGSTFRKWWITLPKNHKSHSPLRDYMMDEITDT

## Myc-EDS1 (ENHANCED DISEASE SUSCEPTIBILITY1) (from UniProt Q9XF23 1-623)
[1]
  binding: binds
[2]
  binding: binds
[3]
  binding: binds
[4]
  binding: binds

## GST-AvrRps4^C (from UniProt Q52432 134-220) (domain or fragment)
His-T7-EDS1
  binding: binds

## GST-AvrRps4^N (from UniProt Q52432 1-133) (domain or fragment)
His-T7-EDS1
  binding: binds

## His-T7-EDS1 (from UniProt Q9XF23 1-623)
[5]
  binding: binds
[6]
  binding: binds
